According to patent US6753424B1, “Conjugates of DNA interacting groups with steroid hormones for use as nucleic acid transfection agents” (priority 1998, dated 2004):
At least one compound was matched to its structure with a doubt left.

Tested on: GR-GFP chimera
Experiment: Nuclear Transfer Induction assay (NTI), monourethane ligands, HeLa cells
Format: cell-based
Description: Conditions: HeLa cells are transiently transfected by CaPO4 with an expression vector encoding a GR-GFP chimera (5 μg in transfection cocktail, 4 cm diameter dishes, DMEM with 3% FCS). After 24 hour expression, ligand is added for 1 hr and cells are fixed with formaldehyde (5 min 4° C.) and inspected by fluorescence microscopy. Fluorescent cells are counted and divided into different classes according to ‘cytoplasmic’ (C) versus ‘nuclear’ (N) localisation of fluorescence.
First column: “Conditions”: Name of compounds added (marked at top: ‘//ligand’), and their concentration (in parentheses) and assay number (01 through 21).
Values are given as percentage of cells displaying the corresponding localisatidn, within each tested condition the sum is 100%.

SMILES: C[C@@H]1C[C@H]2[C@@H]3CCC4=CC(=O)C=C[C@]4(C)[C@@]3(F)[C@@H](O)C[C@]2(C)[C@@]1(O)C(=O)CO [DEX, Dexamethasone, reference compound]
- localisation of GR-GFP fluorescence (assay number 02, 5×10−7 M): strong nuclear fluorescence
- localisation of GR-GFP fluorescence (assay number 03, 5×10−6 M): increased nuclear localisation
